Reference: PubChem BioAssay AID493014 (National Center for Advancing Translational Sciences (NCATS), 2011)
Some of the results follow. Shown are side measurements of this screen, not its main read-out; they come without a call. Most of these compounds were active or inconclusive in the main read-out, so they are no random draw. The note in brackets gives the kind of curve behind each potency; many fits are weak.

Assay: qHTS Assay to Find Inhibitors of Chronic Active B-Cell Receptor Signaling
Conditions: ABC-DLBCL IkBa-CBG/CBR reporter, luminescence ratio (green luciferase fused to IkBa over red control in TMD8 lymphoma cells), 4 h
In short: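 Doxycycline induced both beetle luciferases in TMD8 lymphoma cells; IKK-driven degradation limits the IkappaBalpha-fused green signal, while red luminescence normalises for cell number and nonspecific effects. Compounds tested up to 46 uM, 4 hrs.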

[1] = measured here: CBR red luminescence, cell number
[2] = measured here: IkBa-CBG green luminescence

| Structure (SMILES) | AC50 [1] | AC50 [2] |
| --- | --- | --- |
| Cc1cccc(-c2nc(CC(=O)Nc3cccc(S(=O)(=O)NC4=NCCC4)c3)cs2)c1 | 0.092 µM [rising, full curve, poor fit] |  |
| CCO[C@H]1OC(C(=O)N2CCOCC2)=C[C@@H](c2ccccc2)[C@@H]1CCCO | 0.112 µM [rising, full curve, poor fit] |  |
| O=C(COc1cccnc1[N+](=O)[O-])Nc1ccc2c(c1)OC(F)(F)O2 | 20.6 µM [rising, partial curve, poor fit] |  |
| COc1ccccc1NS(=O)(=O)c1ccc(C(=O)Nc2ncccc2O)cc1 | 6.51 µM [falling, partial curve, poor fit] |  |
| COc1cccc(CNCCc2c[nH]c3ccccc23)c1OCc1ccc(F)cc1 | 29.1 µM [falling, single point] |  |
| Cc1nn(-c2ccccc2)c2[nH]c(=O)c(CNc3ccc(N4CCOCC4)cc3)cc12 | 2.82 µM [falling, partial curve, poor fit] |  |
| O=C(COC(=O)/C=C/C(=O)N1CCN(c2ccccc2)CC1)NC(c1ccccc1)c1ccccc1 | 0.0891 µM [falling, full curve, poor fit] |  |
| Cc1ccc(S(=O)(=O)/N=c2\ccc(Cl)cn2C(F)F)cc1 | 2.82 µM [rising, partial curve, poor fit] |  |
| CCc1ccc(-c2csc(NC(=O)COC(=O)CCc3nc4ccccc4s3)n2)cc1 | 0.82 µM [rising, partial curve, poor fit] |  |
| COc1cccc(-n2c(CNc3ccc(F)cc3)nnc2SCC(N)=O)c1 | 2.31 µM [falling, partial curve, poor fit] |  |
| O=C(COC(=O)c1ccc(NS(=O)(=O)c2cccs2)cc1O)NC1CCCCC1 | 0.708 µM [falling, full curve] |  |
| O=C(CSc1nnc(CCCN2C(=O)c3cccc4cccc(c34)C2=O)n1-c1ccccc1)NCCCN1CCOCC1 | 5.17 µM [rising, partial curve, poor fit] |  |
| CC(/C=C\C=C\c1ccccc1)=N\NC(=O)c1cncc(Br)c1 | 12.6 µM [falling, partial curve] |  |
| O=C(Nc1nnc(-c2ccccc2Cl)o1)c1ccc(S(=O)(=O)N2CCCCCC2)cc1 | 1.12 µM [falling, full curve, poor fit] |  |
| O=C(Nc1nc2c(s1)CCCC2)c1cc2n(n1)C(C(F)(F)F)CC(C1CC1)N2 (stereo unspecified) | 7.94 µM [rising, partial curve, poor fit] |  |
| Cc1nc(SCc2nc3c(F)cccc3[nH]2)c2oc3ccccc3c2n1 | 0.00411 µM [rising, full curve, poor fit] |  |
| Cn1c(=O)c2c(nc(Oc3ccccc3Br)n2C)n(C)c1=O | 7.08 µM [falling, partial curve, poor fit] |  |
| Cn1c(=NC(=O)COc2ccccc2)sc2cc(F)cc(F)c21 | 0.708 µM [rising, full curve, poor fit] |  |
| Cc1onc(-c2ccccc2)c1C(=O)N/N=C/c1ccccc1OC(C)C | 35.5 µM [falling, single point] |  |
| CCN1CCN(c2nc(N)c([N+](=O)[O-])c(Nc3ccc(C)cc3)n2)CC1 | 3.66 µM [rising, full curve, poor fit] |  |
| O=C(N/N=C/c1ccc[nH]1)c1ccccc1O | 3.16 µM [falling, full curve, poor fit] |  |

| Structure (SMILES) | AC50 [1] | AC50 [2] |
| --- | --- | --- |
| O=S(=O)(NCC(c1ccccc1)N1CCNCC1)c1ccc(Cl)cc1 (stereo unspecified) | 11.2 µM [falling, partial curve] |  |
| O=C(c1cc2cc(F)ccc2[nH]1)N1CCN(Cc2ccc3c(c2)OCO3)CC1 | 1.26 µM [falling, full curve, poor fit] |  |
| CCN(CC)CCCn1c2c(c(SCC(=O)Nc3ccc(C)c(F)c3)nc1=O)CCC2 | 16.4 µM [falling, single point] |  |
| O=C(NNS(=O)(=O)c1ccccc1[N+](=O)[O-])c1cc2ccccc2cc1O | 8.91 µM [falling, single point] |  |
| N#Cc1ccccc1S(=O)(=O)N1CCN(CC(O)CN2CCOCC2)CC1 (stereo unspecified) | 18.4 µM [rising, partial curve, poor fit] |  |
| CC(C)(C)c1nnc(N/N=C/c2ccccc2)n(N)c1=O | 25.9 µM [rising, single point] |  |
| CC(C)(C)c1ccc(S(=O)(=O)/N=C2\C=C(NS(=O)(=O)c3ccccc3)C(=O)c3ccccc32)cc1 | 17.8 µM [falling, single point] |  |
| O=c1cc(-c2ccccc2)[nH]c2cc(F)ccc12 | 20.6 µM [rising, partial curve] | 29.1 µM [falling, single point] |
| CCOC(=O)c1c(-c2ccc(C)cc2)csc1/N=C(\C)C1=C(O)c2ccccc2C1=O | 6.31 µM [rising, single point] |  |
| Cc1cc(N/N=C2/CCCc3ccccc32)nc2ccccc12 | 11.2 µM [rising, partial curve] | 31.6 µM [falling, single point] |
| CCc1ccc(NC(=O)N(Cc2cccnc2)Cc2ccco2)cc1 | 29.1 µM [rising, single point] |  |
| Cc1ccc(Sc2ccc(NC(=O)CCl)cc2)c(C)c1 | 23.1 µM [falling, single point] | 20.6 µM [falling, single point] |
| O=C(Nc1ccccc1OC(F)F)c1cccc(S(=O)(=O)N2CCCC2)c1 | 25.1 µM [falling, single point] |  |
| Cc1ccc(OCCOc2cccc(/C=N/NC(N)=O)c2)cc1 | 0.447 µM [rising, full curve, poor fit] |  |
| CCc1ccc(/C=C2\SC(=S)N(CCCC(=O)Nc3ccc(C(=O)O)cc3)C2=O)cc1 | 0.891 µM [falling, partial curve, poor fit] |  |
| CCOC(=O)C1=C(C)N(C)C(C)=C(C(=O)OCC)C1c1ccccn1 | 23.1 µM [rising, single point] |  |
| NNC(=O)CNC(=O)c1ccccc1F | 25.9 µM [falling, single point] |  |
| CCN=C(NC#N)SCc1c(F)cccc1Cl | 29.1 µM [rising, single point] |  |
| COc1ccc2c(c1OC)C(=O)N1C2SC(C)(C)[C@H]1C(=O)NC(C)C (stereo partly specified) | 17.8 µM [rising, single point] |  |
| COC(=O)c1ccc(C2NC(=S)N(c3ccccc3)C(C)=C2C(=O)Nc2ccccc2OC)cc1 (stereo unspecified) | 6.51 µM [falling, partial curve, poor fit] |  |
| Cc1ccc(S(=O)(=O)N(C)C)cc1-n1c(SCC(=O)Nc2ccccc2)nc2ccccc2c1=O | 0.731 µM [rising, full curve, poor fit] |  |

3 entries drawn at random from the list so far:

| Structure (SMILES) | AC50 [1] | AC50 [2] |
| --- | --- | --- |
| COC(=O)c1ccc(C2NC(=S)N(c3ccccc3)C(C)=C2C(=O)Nc2ccccc2OC)cc1 (stereo unspecified) | 6.51 µM [falling, partial curve, poor fit] |  |
| N#Cc1ccccc1S(=O)(=O)N1CCN(CC(O)CN2CCOCC2)CC1 (stereo unspecified) | 18.4 µM [rising, partial curve, poor fit] |  |
| CCOC(=O)c1c(-c2ccc(C)cc2)csc1/N=C(\C)C1=C(O)c2ccccc2C1=O | 6.31 µM [rising, single point] |  |

Additional structures.

| Structure (SMILES) | AC50 [1] | AC50 [2] |
| --- | --- | --- |
| Cc1cccc(C)c1NC(=O)C(NC=O)c1ccc(Cl)cc1 (stereo unspecified) | 29.1 µM [falling, single point] |  |
| O=c1oc(-c2cccnc2)nc2ccccc12 | 11.2 µM [falling, partial curve, poor fit] |  |
| COc1cccc(-c2nc(CS(=O)(=O)CC(=O)NC3CCCc4ccccc43)c(C)o2)c1 (stereo unspecified) | 14.6 µM [rising, single point] |  |
| O=C(NNC(=O)c1cc2ccccc2oc1=O)c1ccccc1 | 2.24 µM [falling, full curve, poor fit] |  |
| COc1ccccc1NCC(=O)N/N=C/c1c(O)ccc2ccccc12 | 20 µM [falling, single point] |  |
| COC(=O)c1ccc(/C=N/NC(=O)c2cccc(F)c2)cc1 | 23.1 µM [falling, single point] |  |
| c1ccc(CCNc2ncnc3c2cnn3-c2ccccc2)cc1 | 16.4 µM [falling, single point] |  |
| COC(=O)CCC(=O)CN | 14.6 µM [rising, partial curve, poor fit] |  |
| COC(=O)c1ccc2nc(NC(=O)COC(=O)CSc3nc(C)cc(C)n3)sc2c1 | 4.11 µM [rising, partial curve] |  |
| CCC1CCC/C1=N\NC(=O)c1ccoc1C (stereo unspecified) | 3.98 µM [falling, partial curve] |  |
| O=c1c2ccccc2nc(N/N=C/c2c(O)ccc3ccccc23)n1O | 2.91 µM [falling, full curve] |  |
| Cc1ccc(CNC(=O)C(Cc2ccccc2)NS(=O)(=O)c2ccc(Br)s2)cc1 (stereo unspecified) | 29.1 µM [falling, single point] |  |
| CC1Sc2ccc(C(=O)OCc3ccccc3Cl)cc2NC1=O (stereo unspecified) | 0.13 µM [rising, full curve, poor fit] |  |
| Cc1nn(Cc2ccccc2)c2c1C(c1ccccc1)C(C#N)=C(N)O2 (stereo unspecified) | 11.6 µM [falling, partial curve] | 25.9 µM [falling, partial curve, poor fit] |
| CC(C)C[C@H]1CN=C(Nc2ccccc2)N1CC1CCC(C)CC1 (stereo partly specified) | 10 µM [falling, partial curve, poor fit] |  |
| CCOC(=O)c1nc2ccccc2c(C)c1C | 12.6 µM [rising, partial curve, poor fit] |  |
| O=C(/C=C/c1ccccc1)c1cc(Br)ccc(=O)c1O | 5.17 µM [falling, full curve] |  |
| c1ccc(CNc2ccc3ccccc3n2)nc1 | 22.4 µM [falling, single point] |  |
| COCCNc1nnc(SC(C)C(=O)Nc2ccc(-c3nc4ccc(C)cc4s3)cc2)s1 (stereo unspecified) | 0.092 µM [rising, full curve, poor fit] |  |
| COc1ccc2sc(-c3ccccc3OC)c(-c3ccc(OCCN(C)C)cc3)c2c1 | 29.1 µM [falling, single point] |  |
